Reference: paper PMC12346409
For at least one entry, the source does not settle the construct or the ends of the probe. For some assays here: Weaker means in comparison with the reference protein, sequence or condition of that experiment. For some assays here: At least one verdict was read from the data and is not stated in words by the source. For some assays here: Tags and fusion partners may be left off the protein sequences shown.

By UniProt entry, the sequences of proteins in these tests, tags left out. Where a name states a change or a piece, a line headed by the entry shows the natural chain unless it says otherwise.
UniProt P09874, whole entry: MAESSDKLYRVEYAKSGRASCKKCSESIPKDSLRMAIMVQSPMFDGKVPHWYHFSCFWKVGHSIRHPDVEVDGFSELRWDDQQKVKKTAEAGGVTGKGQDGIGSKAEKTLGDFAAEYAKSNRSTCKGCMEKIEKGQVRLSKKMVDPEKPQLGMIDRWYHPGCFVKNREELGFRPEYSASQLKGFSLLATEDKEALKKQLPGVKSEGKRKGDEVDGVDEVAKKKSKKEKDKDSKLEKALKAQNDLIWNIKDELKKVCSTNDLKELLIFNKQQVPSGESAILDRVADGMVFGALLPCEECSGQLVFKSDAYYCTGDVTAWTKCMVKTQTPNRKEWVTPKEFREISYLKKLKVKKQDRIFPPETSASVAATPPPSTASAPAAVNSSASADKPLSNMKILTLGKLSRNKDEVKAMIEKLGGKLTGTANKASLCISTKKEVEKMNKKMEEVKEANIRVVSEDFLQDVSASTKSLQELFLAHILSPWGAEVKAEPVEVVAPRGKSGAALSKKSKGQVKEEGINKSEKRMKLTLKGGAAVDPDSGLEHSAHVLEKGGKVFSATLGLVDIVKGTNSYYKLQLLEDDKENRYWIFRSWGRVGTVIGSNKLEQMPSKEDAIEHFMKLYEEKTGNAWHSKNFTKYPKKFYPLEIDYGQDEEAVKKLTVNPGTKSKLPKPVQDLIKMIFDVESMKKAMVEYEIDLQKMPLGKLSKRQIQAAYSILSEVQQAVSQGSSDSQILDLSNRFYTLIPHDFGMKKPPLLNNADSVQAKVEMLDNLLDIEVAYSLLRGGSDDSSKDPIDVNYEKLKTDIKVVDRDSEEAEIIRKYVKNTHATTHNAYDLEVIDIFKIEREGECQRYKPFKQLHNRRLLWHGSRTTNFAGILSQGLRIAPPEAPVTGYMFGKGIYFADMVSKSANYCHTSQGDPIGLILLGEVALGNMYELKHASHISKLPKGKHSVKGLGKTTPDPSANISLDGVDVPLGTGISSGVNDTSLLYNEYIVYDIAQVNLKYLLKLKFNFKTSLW
UniProt Q9UGN5: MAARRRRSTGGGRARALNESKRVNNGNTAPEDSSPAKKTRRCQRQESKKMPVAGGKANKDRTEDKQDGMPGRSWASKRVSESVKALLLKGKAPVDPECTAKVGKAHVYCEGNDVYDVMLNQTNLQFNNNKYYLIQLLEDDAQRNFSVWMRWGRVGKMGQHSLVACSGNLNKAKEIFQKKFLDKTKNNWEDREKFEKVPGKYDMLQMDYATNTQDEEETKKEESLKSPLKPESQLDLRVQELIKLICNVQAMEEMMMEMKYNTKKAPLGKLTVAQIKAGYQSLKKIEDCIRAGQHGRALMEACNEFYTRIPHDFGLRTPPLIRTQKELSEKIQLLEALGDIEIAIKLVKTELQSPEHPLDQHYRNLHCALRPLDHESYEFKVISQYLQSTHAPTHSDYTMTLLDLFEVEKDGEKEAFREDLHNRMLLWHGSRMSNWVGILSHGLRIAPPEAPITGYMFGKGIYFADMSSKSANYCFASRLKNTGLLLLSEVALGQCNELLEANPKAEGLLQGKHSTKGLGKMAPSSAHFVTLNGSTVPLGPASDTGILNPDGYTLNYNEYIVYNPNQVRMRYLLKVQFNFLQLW

Assays:
PARP1 (human) [1] = target: PARP1 (human) (UniProt P09874); experiment: EMSA; conditions: 10 nM PARP1, 10 nM DNA, range over the three LS-DNAs, EMSA: 50 mM Tris-HCl pH 8.0, 20 mM NaCl, 0.25 mM EDTA, 5% glycerol, 0.025% NP-40, 37 °C 20 min, 8% PAAG, 0.5x TBE, 10 °C, recombinant protein, label: 5'-32P on O1-Pho strand
PARP3 = target: T1, PARP3 (UniProt Q9Y6F1); experiment: EMSA; conditions: 10 nM DNA, EMSA: 50 mM Tris-HCl pH 8.0, 20 mM NaCl, 0.25 mM EDTA, 5% glycerol, 0.025% NP-40, 37 °C 20 min, 8% PAAG, 0.5x TBE, 10 °C, recombinant protein, label: 5'-32P on O1-Pho strand
T1 sequence (looked up, limits assumed): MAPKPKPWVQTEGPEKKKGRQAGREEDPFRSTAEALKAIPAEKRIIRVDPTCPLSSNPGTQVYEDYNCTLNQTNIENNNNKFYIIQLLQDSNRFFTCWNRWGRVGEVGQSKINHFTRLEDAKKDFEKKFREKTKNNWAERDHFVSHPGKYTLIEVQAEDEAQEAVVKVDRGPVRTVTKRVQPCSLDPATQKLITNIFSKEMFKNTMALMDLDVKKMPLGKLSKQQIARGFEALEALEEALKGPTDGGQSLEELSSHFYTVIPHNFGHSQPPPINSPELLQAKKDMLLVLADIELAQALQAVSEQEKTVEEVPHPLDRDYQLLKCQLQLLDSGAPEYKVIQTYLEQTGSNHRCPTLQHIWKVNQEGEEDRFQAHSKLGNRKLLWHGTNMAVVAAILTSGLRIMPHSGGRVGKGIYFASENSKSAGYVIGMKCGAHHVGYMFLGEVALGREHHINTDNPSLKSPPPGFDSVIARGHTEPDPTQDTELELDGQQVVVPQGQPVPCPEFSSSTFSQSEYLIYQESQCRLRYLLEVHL

PARP2 (human) [2] = target: PARP2 (human) (UniProt Q9UGN5); experiment: EMSA; conditions: EMSA: 50 mM Tris-HCl pH 8.0, 20 mM NaCl, 0.25 mM EDTA, 5% glycerol, 0.025% NP-40, 37 °C 20 min, 8% PAAG, 0.5x TBE, 10 °C, recombinant protein, label: 5'-32P on O1-Pho strand
PARP1 (human) [3] = target: PARP1 (human) (UniProt P09874); experiment: photo-cross-linking; conditions: recombinant protein
Ku antigen (Ku70/Ku80) = experiment: photo-cross-linking; conditions: 100 nM DNA, 100 nM protein, Ku70 and Ku80 labelled; 3'-terminal FAP-dCMP on strand 1; 5'-p-diethylene glycol on strand 2
PARP2 (human) [4] = target: PARP2 (human) (UniProt Q9UGN5); experiment: photo-cross-linking; conditions: with NAD+ (autoPARylated PARP2); 3'-terminal FAP-dCMP (photoactivatable C) on strand 2; recombinant protein; label: 5'-32P

TCCTGACATACTTGATACTTAGACATTCTT / AAGAATGTCTAAGTATCAAGTATGT [DNA-TZD (EMSA, O-TZD/O1-Pho)]
binding result (PARP1 (human) [1]; triazinyl phosphoramidate with two dodecyl residues between T29 and T30 of strand 1): binds
binding result (PARP3; maximal LS-DNA binding 25% (lane 2) at 10 nM PARP3, triazinyl phosphoramidate with two dodecyl residues between T29 and T30 of strand 1): binds
binding result (PARP2 (human) [2]; 10 nM DNA, maximal LS-DNA binding 15% (lane 2) at 10 nM PARP2, triazinyl phosphoramidate with two dodecyl residues between T29 and T30 of strand 1): binds

GGCGACTAAGCCGGGC / AACGCCAGGGCCTCCC / GGGAGGCCCTGGCGTTGCCCGGCTTAGTCGCC [Pho-pDEG]
binding result (PARP1 (human) [3]; 100 nM DNA, 100 nM protein, 3'-terminal FAP-dCMP on strand 1, 5'-p-diethylene glycol on strand 2): binds
binding result (Ku antigen (Ku70/Ku80)): binds

TCCTGACATACTTGATACTTAGACATTCTT / AAGAATGTCTAAGTATCAAGTATGT [DNA-Chol (EMSA, O-Chol/O1-Pho)]
binding result (PARP1 (human) [1]; 3'-cholesterol via linker on strand 1): binds
binding result (PARP3; at most 25% at 10 nM PARP3, 3'-cholesterol via linker on strand 1): binds
binding result (PARP2 (human) [2]; 10 nM DNA, at most 15% at 10 nM PARP2, 3'-cholesterol via linker on strand 1): binds

TCCTGACATACTTGATACTTAGACATTCTT / AAGAATGTCTAAGTATCAAGTATGT [DNA-PG-TZD (EMSA, O-PG-TZD/O1-Pho)]
binding result (PARP1 (human) [1]; phosphorylguanidine at internucleotide phosphates 1 and 2, TZD between T29 and T30 of strand 1): binds
binding result (PARP3; at most 25% at 10 nM PARP3, phosphorylguanidine at internucleotide phosphates 1 and 2, TZD between T29 and T30 of strand 1): binds
binding result (PARP2 (human) [2]; 10 nM DNA, at most 15% at 10 nM PARP2, phosphorylguanidine at internucleotide phosphates 1 and 2, TZD between T29 and T30 of strand 1): binds

TCCTGACATACTTGATACTTAGACATTCTT / AAGAATGTCTAAGTATCAAGTATGT [DNA-R (EMSA, O-R/O1-Pho)]
binding result (PARP2 (human) [2]; no complex at 10 nM PARP2, 10 nM DNA, complexes implied at protein excess): binds more weakly

TCCTGACATACTTGATACTTAGACATTCTT / AAGAATGTCTAAGTATCAAGTATGTC [Pho-DNA-R]
binding result (PARP1 (human) [3]; with NAD+ (autoPARylated PARP1), 3'-terminal FAP-dCMP (photoactivatable C) on strand 2, label: 5'-32P): binds more weakly
binding result (PARP2 (human) [4]): binds more weakly
